Measurements published in publication PMC11315935, “Multi-layered heterochromatin interaction as a switch for DIM2-mediated DNA methylation” (Nature Communications, 2024).
No constants are given. Whether binding was seen depends on the method and setting. Some binding calls cover weakened binding; strength is not graded here.

Protein sequences, listed by entry. Tags and fused reporters are not part of them.
UniProt Q1K612: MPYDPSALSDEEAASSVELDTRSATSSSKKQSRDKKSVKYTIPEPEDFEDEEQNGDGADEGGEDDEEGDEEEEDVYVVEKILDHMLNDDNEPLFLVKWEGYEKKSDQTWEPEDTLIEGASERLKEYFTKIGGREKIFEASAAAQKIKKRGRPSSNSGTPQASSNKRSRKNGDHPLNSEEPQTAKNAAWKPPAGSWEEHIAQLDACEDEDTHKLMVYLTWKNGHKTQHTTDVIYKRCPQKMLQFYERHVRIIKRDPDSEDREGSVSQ

Legend:
[1] = target: histone H3 peptide (residues 1-24) with H3K9me3, plus a C-terminal tryptophan (UniProt P68431); assay: ITC; 0.04-0.05 mM protein titrated with 0.5 mM histone peptide at 7 °C, 20 mM Tris-HCl pH 7.5, 100 mM NaCl, 1 mM β-mercaptoethanol; single-site fit; apparent; both purified
[2] = target: T1, DIM2 (residues 1-1242) W261A/W581A (Neurospora crassa) (UniProt Q3Y3Z1); assay: condition: 0.5 mM peptide titrated into 0.04-0.05 mM protein; ITC; 0.04-0.05 mM protein titrated with 0.5 mM histone peptide at 7 °C; 20 mM Tris-HCl pH 7.5, 100 mM NaCl, 1 mM beta-mercaptoethanol; MicroCal iTC200; fitted with single-site binding mode (apparent Kd for WT DIM2); both purified
T1 sequence: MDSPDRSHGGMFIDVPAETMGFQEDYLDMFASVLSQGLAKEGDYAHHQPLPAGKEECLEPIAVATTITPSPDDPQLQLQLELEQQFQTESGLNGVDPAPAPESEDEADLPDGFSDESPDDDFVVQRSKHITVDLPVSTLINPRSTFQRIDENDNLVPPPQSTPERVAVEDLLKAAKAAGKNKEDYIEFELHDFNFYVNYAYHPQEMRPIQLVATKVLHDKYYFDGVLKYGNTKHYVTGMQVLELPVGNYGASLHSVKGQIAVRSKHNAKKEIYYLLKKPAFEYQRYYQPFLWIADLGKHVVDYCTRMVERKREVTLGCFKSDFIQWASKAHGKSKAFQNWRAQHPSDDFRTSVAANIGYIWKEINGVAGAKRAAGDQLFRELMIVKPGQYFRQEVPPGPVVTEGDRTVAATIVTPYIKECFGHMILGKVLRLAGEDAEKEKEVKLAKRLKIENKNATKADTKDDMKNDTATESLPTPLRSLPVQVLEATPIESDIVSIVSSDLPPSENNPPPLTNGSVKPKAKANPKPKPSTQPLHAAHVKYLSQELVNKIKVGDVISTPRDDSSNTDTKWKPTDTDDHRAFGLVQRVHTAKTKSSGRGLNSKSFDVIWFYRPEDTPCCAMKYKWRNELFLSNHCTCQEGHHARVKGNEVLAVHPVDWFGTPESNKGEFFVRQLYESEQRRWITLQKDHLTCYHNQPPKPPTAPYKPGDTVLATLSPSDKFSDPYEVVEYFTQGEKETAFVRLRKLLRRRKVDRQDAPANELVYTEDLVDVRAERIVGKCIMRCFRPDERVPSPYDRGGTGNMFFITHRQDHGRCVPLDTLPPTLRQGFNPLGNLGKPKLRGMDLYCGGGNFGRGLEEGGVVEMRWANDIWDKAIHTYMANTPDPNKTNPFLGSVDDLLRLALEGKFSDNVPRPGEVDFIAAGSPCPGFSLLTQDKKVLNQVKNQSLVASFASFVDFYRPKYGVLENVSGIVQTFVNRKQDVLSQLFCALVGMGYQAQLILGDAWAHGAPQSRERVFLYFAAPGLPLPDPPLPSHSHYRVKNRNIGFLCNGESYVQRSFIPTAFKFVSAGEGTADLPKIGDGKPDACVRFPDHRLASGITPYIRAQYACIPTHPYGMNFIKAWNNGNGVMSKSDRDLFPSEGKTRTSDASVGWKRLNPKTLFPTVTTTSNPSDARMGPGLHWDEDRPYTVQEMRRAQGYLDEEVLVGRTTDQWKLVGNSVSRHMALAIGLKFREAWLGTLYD

With “heterochromatin protein 1 (HP1), full length, residues 1-266 (from UniProt Q1K612 1-266)” the binding [1] was “binds”.

For “histone H3 peptide (residues 1-24) harboring the H3K9me3 modification (from UniProt P68431 2-25)”, the binding [2] was “no binding”.
